# Laboratory results from PubChem BioAssay AID2685 (National Center for Advancing Translational Sciences (NCATS), 2010).
# The campaign covered roughly 320,000 compounds. About 2,100 (0.66%) were called active. Inconclusive means that the source gave no clear call. Such entries were picked first, then a sample of the others. Calls follow the shape of the dose curve; as a rule, active = well fitted inhibition curve with a large enough effect in the signal ratio, with a control signal flat (not every such curve was filed as active); inconclusive = small, poorly fitted or top-dose-only effect, or effect the other way, or a change in a side signal; inactive = flat fitted curve, though single readings scatter; the % refers to the signal ratio. Potencies of inconclusive entries are doubtful fits and often do not repeat.
# Experiment: qHTS Assay for Lipid Storage Modulators in Drosophila S3 Cells
# Conditions: BODIPY lipid droplet fluorescence, 18-24 h, cells fed with added oleic acid; lipid storage change, negative = inhibition: at 46.1 µM (top of the series) unless noted
# Summary of the method: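 Drosophila S3 cells got compounds at several concentrations plus oleic acid (400 uM solution). Laser-scanning cytometry with 488 nm excitation read lipid droplets at 500-530 nm and cells at 575-640 nm. Percent activity was relative to 20 uM Triacsin C.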
# % is scaled to controls: 0 for no effect and ±100 for the full control effect; potency is read from the fitted curve at half-maximal effect.
SMILES,"lipid storage change, negative = inhibition",Potency
CC(=O)OC1CC(c2cc(C(C)(C)C)c(O)c(C(C)(C)C)c2)=NO1 (stereo not given),inconclusive: 18.8%,–
NC(=O)c1cccnc1Nc1cccc(F)c1,inconclusive: 6.19%,–
COc1ccc(NC(=O)CSc2nc3ccccc3c(=O)n2C)cc1,inconclusive: -50.8%,–
CC(=O)c1ccc(NC(=O)C2CCCN(C(=O)c3ccc(Cl)cc3)C2)cc1 (stereo not given),inconclusive: -3.62%,–
COc1cc(/C=C(\NC(=O)c2ccccc2)C(=O)NC(C(=O)O)c2ccccc2)cc(OC)c1OC (stereo not given),–,"inconclusive: 29.1 µM [activator, single point]"
Cc1cc(OCc2cc(C(=O)N(C)Cc3nonc3C)no2)cc(C)c1Cl,inconclusive: 24.4%,–
Nc1nc2nccc(-c3ccccn3)n2n1,inconclusive: 38.8%,–
NS(=O)(=O)c1ccc(CCn2c(=S)[nH]c3ccc(F)cc3c2=O)cc1,inconclusive: -0.0172%,–
Cc1ccc(-c2nc(P(=O)(c3ccccc3)c3ccccc3)c(N3CCOCC3)o2)cc1,inconclusive: -17.5%,–
CC(C)(C)OC(=O)NN=C(c1ccc(O)cc1)c1ccc(O)cc1,–,"inconclusive: 7.31 µM [activator, partial curve]"
C=C(C)CSCc1nc2ccccc2[nH]1,–,"inconclusive: 0.651 µM [falling, full curve, poor fit]"
NS(=O)(=O)c1ccc(NC(=O)/C=C/c2ccccc2Cl)cc1,inconclusive: 17.3%,–
Cc1cc(NS(=O)(=O)c2cccs2)no1,–,"inconclusive: 29.1 µM [falling, partial curve, poor fit]"
CCC(C(=O)Nc1nccs1)c1ccccc1 (stereo not given),inconclusive: 12.5%,–
COC(=O)CCCNC(=O)c1ccc(OS(=O)(=O)c2cc([N+](=O)[O-])ccc2C)cc1,inconclusive: 51.9%,–
O=C(CCCN1C(=O)/C(=C/c2ccccc2Cl)SC1=S)NNC(=O)c1ccccc1,–,"inconclusive: 29.1 µM [falling, single point]"
COC(=O)c1ccc(NC(=O)CN(C2CCCCC2)S(C)(=O)=O)cc1,inconclusive: -24.4%,–
C=CCn1c(SCc2cccc(OC)c2)nnc1-c1ccncc1,–,"inconclusive: 32.6 µM [falling, single point]"
Cc1ccc(O)c(C2=NCCNC(C(F)(F)F)=C2)c1,inconclusive: -0.164%,–
S=c1[nH]ncn1/N=C/c1ccccn1,–,"inconclusive: 3.66 µM [cytotoxic, full curve]"
COc1ccc(OC)c2c(C)cc(N3CCCCCC3)nc12,inconclusive: -22.6%,–
CCCN(CC(=O)Nc1ccccc1C)C(=O)c1ccc(N2CCCC2=O)cc1,inconclusive: 25.2%,–
CC(=O)Nc1ccc(S(=O)(=O)N(C)c2ccccc2)cc1,inconclusive: -18.9%,–
Cc1cccc(-c2nnc(SCc3ccc(C#N)cc3)n2Cc2ccco2)c1,inconclusive: -29%,–
O=C(c1ccc(-c2ccc([N+](=O)[O-])cc2)o1)N1CCCCCCC1,inconclusive: 42.1%,–

# 7 entries from above, with bars between the fields.
SMILES | lipid storage change, negative = inhibition | Potency
NC(=O)c1cccnc1Nc1cccc(F)c1 | inconclusive: 6.19% | –
Nc1nc2nccc(-c3ccccn3)n2n1 | inconclusive: 38.8% | –
NS(=O)(=O)c1ccc(NC(=O)/C=C/c2ccccc2Cl)cc1 | inconclusive: 17.3% | –
COC(=O)CCCNC(=O)c1ccc(OS(=O)(=O)c2cc([N+](=O)[O-])ccc2C)cc1 | inconclusive: 51.9% | –
O=C(CCCN1C(=O)/C(=C/c2ccccc2Cl)SC1=S)NNC(=O)c1ccccc1 | – | inconclusive: 29.1 µM [falling, single point]
COC(=O)c1ccc(NC(=O)CN(C2CCCCC2)S(C)(=O)=O)cc1 | inconclusive: -24.4% | –
Cc1ccc(O)c(C2=NCCNC(C(F)(F)F)=C2)c1 | inconclusive: -0.164% | –

# (more compounds)

SMILES,"lipid storage change, negative = inhibition",Potency
CN(C)C=Nc1nonc1-c1ncn[nH]1,–,"inconclusive: 20.6 µM [falling, single point]"
Cc1[nH]nc2oc(=O)c(CCO)c(C)c12,inconclusive: -15.3%,–
COc1ccccc1NS(=O)(=O)c1cccc(C(=O)N2CCN(Cc3ccc4c(c3)OCO4)CC2)c1,–,"inconclusive: 6.51 µM [rising, partial curve]"
CCN(CC)CCn1c2c(c(SCC(=O)Nc3ccc4c(c3)OCO4)nc1=O)CCC2,–,"inconclusive: 9.2 µM [activator, partial curve]"
C=CCNC(=S)NNC(=O)C(CC(C)C)CC(C)O (stereo not given),inactive,–
CCCCNC(=O)[C@H]1C[C@H]1[C@@H](O)[C@H](CO)NC(=O)[C@H](COCc1ccccc1)NC(=O)OC(C)(C)C,inconclusive: 1.97%,–
O=C(O)CC(SCC(=O)NC1CCCc2ccccc21)C(=O)O (stereo not given),–,"inconclusive: 0.0052 µM [falling, full curve, poor fit]"
Clc1ccc(C2=NCCn3nc4ccccc4c32)cc1,–,"inconclusive: 29.1 µM [falling, single point]"
CCN(CC)S(=O)(=O)c1cc([N+](=O)[O-])ccc1N=Nc1c(O)n(C)c2ccccc12,inconclusive: 44.6%,–
CCn1cc(C(=O)NP(=O)(Nc2ccc(C)cc2)Nc2ccc(C)cc2)c2ccccc21,inconclusive: -11.8%,–
CCCc1cc(=O)oc2c(C)c(OCC(=O)NC3CC(C)(C)NC(C)(C)C3)ccc12,–,"inconclusive: 29.1 µM [activator, single point]"
Cc1ccc2nc(CSc3nnc(Nc4ccccc4C)s3)cc(=O)n2c1,–,"inconclusive: 2.59 µM [activator, partial curve]"
COc1cc(-c2nc3n(n2)C(c2cccc(OC)c2OC)C2=C(CCCC2=O)N3)cc(OC)c1OC (stereo not given),inconclusive: -4.61%,–
O=C(NCCCNC(=O)c1ccccc1Br)c1ccccc1Br,inactive,–
CCCSc1ccc([C@H]2N[C@@](C)(C(=O)OC)[C@H]3C(=O)N(C)C(=O)[C@@H]23)cc1,inconclusive: 16.2%,–
O=C(OC(C(=O)NC1CCCCC1)c1ccccc1F)c1ccco1 (stereo not given),–,"inconclusive: 0.146 µM [falling, partial curve, poor fit]"
C=CCn1c(SCC(=O)Nc2cc(C)nn2-c2ccccc2)nnc1C1CCCCC1,–,"inconclusive: 18.4 µM [activator, partial curve, poor fit]"
CSc1n[nH]c(/N=C/c2oc(O)c3ccccc23)n1,–,"inconclusive: 6.51 µM [cytotoxic, single point]"
COc1ccc(C(=O)Sc2ccc(Cl)cc2)cc1OC,–,"inconclusive: 2.06 µM [falling, single point]"
CC1CCCCN1C(=O)C(=O)c1cn(CC(=O)N2CCCCCC2)c2ccccc12 (stereo not given),inconclusive: -8.8%,–
O=C(N/N=C/c1ccc(Br)cc1)c1ccccc1-n1cccc1,inconclusive: 23.7%,–
COc1cccc(OCC(=O)NC2CCS(=O)(=O)C2)c1 (stereo not given),–,"inconclusive: 29.1 µM [rising, single point]"
CCN(CC)CCNc1nc2ccccc2n1C,inconclusive: -98.5%,–
N#CCCN(Cc1ccncc1)C(=S)NC1CC2C=CC1C2 (stereo not given),inconclusive: 7.1%,–
O=C1CCCN1S(=O)(=O)c1ccc(F)cc1,–,"inconclusive: 4.61 µM [falling, single point]"

SMILES,"lipid storage change, negative = inhibition",Potency
O=S(=O)(Nc1cccc(-c2ccc3nncn3n2)c1)c1ccccc1F,inconclusive: -21.4% [at 0.0737 µM],–
O=C(Nc1ccccc1C(F)(F)F)c1cc(-c2cccc(O)c2)on1,–,"inconclusive: 6.51 µM [falling, single point]"
CSc1ccc(/C=C(\NC(=O)c2ccc(C)cc2)C(=O)NN)cc1,inconclusive: 8.03%,–
O=C(CCNC(=O)C1CCN(S(=O)(=O)c2ccccc2)CC1)NCc1ccccn1,–,"inconclusive: 13 µM [activator, partial curve]"
CC1(C(=O)NNC(=O)C2CCCCC2)CC1(Cl)Cl (stereo not given),–,"inconclusive: 0.411 µM [falling, partial curve, poor fit]"
O=C(C1CCN(S(=O)(=O)c2cccc3cccnc23)CC1)N1CC=C(c2ccccc2)CC1,–,"inconclusive: 6.51 µM [activator, single point]"
CCCCn1c(SCC(=O)NC(=O)Cc2ccccc2)nc2ccccc2c1=O,inconclusive: 48.4%,–
N#Cc1ccc(S(=O)(=O)N2CCC(C(=O)Nc3cccc(C(=O)NC4CC4)c3)CC2)cc1,inconclusive: 15.7%,–
O=C(NNC(=O)C1CCN(C(=O)Nc2ccccc2)CC1)c1ccc(F)cc1,inconclusive: 12.3%,–
CCCCNC(=O)c1onc(CSc2ccc(OC)cc2)c1C(=O)O,inconclusive: 4.83%,–
Cc1nn(CC(=O)NCc2ccccc2)c(=O)c2ccccc12,inconclusive: 21.4%,–
O=S(=O)(c1ccc(Cl)cc1)N1CCN(c2ccccn2)CC1,–,"inconclusive: 0.651 µM [falling, full curve, poor fit]"
O=C(NCC1(c2ccccc2)CCCC1)C(=O)N1CCOCC1,inconclusive: 12.8%,–
C/C=C/c1ccc(OCC(=O)OCC(=O)Nc2c(C)nn(-c3ccccc3)c2C)c(OC)c1,inconclusive,–
C/C(Cn1nnc([N+](=O)[O-])n1)=N\NC(=O)c1ccc(O)cc1,inconclusive: -57.6%,–
COc1cc(Cl)cc(NC(=O)CCN2CCN(C)CC2)c1,inconclusive: -32.1%,–
C=CCNC(=O)c1cc(Cl)ccn1,inconclusive: -50.1%,–
COc1ccc(C2CC(=O)Oc3ccc(C(C)(C)C)cc32)cc1 (stereo not given),inconclusive: 157%,–
COc1cccc(-c2nnc(NC(=O)c3ccco3)s2)c1,inconclusive: 66.1%,–
O=C(CCc1ccccc1)NN1C(=O)C2C3C=CC(O3)C2C1=O (stereo not given),inconclusive: 113%,–
Nc1cccc(C(=O)Nc2ccc3nc(-c4cccnc4)[nH]c3c2)c1,inconclusive: 14%,–
CCN1C(=O)[C@H]2[C@@H](c3ccc(C)cc3)N3C(=O)N(c4ccc(OC)cc4)C(=O)[C@@]3(C)[C@H]2C1=O,inconclusive: 149%,–
Cc1cc(NC(=O)C(C)SCC(=O)OCc2ccc(Cl)cc2Cl)no1 (stereo not given),–,"inconclusive: 0.0046 µM [activator, full curve, poor fit]"
COc1cc2c(cc1NC(=O)C(C)OC(=O)C1CC(=O)N(Cc3ccco3)C1)oc1ccccc12 (stereo not given),–,"inconclusive: 7.31 µM [falling, partial curve]"
CC1CCCCN1C(=O)c1ccccc1NC(=O)c1ccco1 (stereo not given),inconclusive: 23.9%,–
